Source: PubChem BioAssay AID1224830 (NIAID, 2016)
Purpose: 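Genes whose knock-down alters the TNF-alpha reporter response to LPS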 (primary screen). System: human THP-1 monocytic leukaemia cells, TNF dual-luciferase reporter clone, PMA-differentiated to macrophage-like cells. Reagent: siRNA pool against human genes, 50 nM. Timing: LPS for 4 h, given about 3 days after siRNA transfection. Treatment: bacterial LPS (TLR4 ligand), 10 ng/ml. Measurement: 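Ratio of firefly to renilla light, scaled to the plate median and expressed as a robust z-score per replicate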. Direction: TNF reporter robust z-score: higher = stronger TNF reporter response to LPS. Active means: 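a well is active when its z-score exceeds 2.8 or falls below -1.5; control wells carry no call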.
Shown is a random part of about 18,000 reagents tested. About 2,900 of them (16%) count as active. 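Calls are made per well; low scores hint the gene aids the LPS response, high scores that it dampens it.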 A number with no mark means an inactive call. Repeated entries: four replicate wells of each siRNA pool. No sequences are given here.

| Gene | TNF reporter robust z-score |
| --- | --- |
| ABHD14A | 1.42 |
| ABHD14A | -0.69 |
| ABHD14A | 0.01 |
| ABHD14A | 0.59 |
| KIF26A | -0.27 |
| KIF26A | 0.06 |
| KIF26A | -0.1 |
| KIF26A | -0.21 |
| DENND2B | -1.59 (active) |
| DENND2B | 0.87 |
| DENND2B | 1.11 |
| DENND2B | 0.53 |
| RTF1 | 2.46 |
| RTF1 | 1.5 |
| RTF1 | 0.89 |
| RTF1 | 0.68 |
| TYRP1 | 0.66 |
| TYRP1 | -0.18 |
| TYRP1 | -0.16 |
| TYRP1 | 0.53 |
| PPP3R1 | 0.42 |
| PPP3R1 | 3.73 (active) |
| PPP3R1 | 1.74 |
| PPP3R1 | -1.28 |
| SPIN1 | 1.25 |
| SPIN1 | 2.17 |
| SPIN1 | 0.98 |
| SPIN1 | 2.56 |
| HOXD3 | 0.71 |
| HOXD3 | 1.4 |
| HOXD3 | 0.33 |
| HOXD3 | -0.22 |
| PPP1R12A | 0.41 |
| PPP1R12A | 1.73 |
| PPP1R12A | -0.9 |
| PPP1R12A | 1.34 |
| STAG3L2 | 0.24 |
| STAG3L2 | 0.32 |
| STAG3L2 | 0.11 |
| STAG3L2 | 0.27 |
| TTF2 | -0.03 |
| TTF2 | -0.15 |
| TTF2 | 0.46 |
| TTF2 | 1.63 |
| CTBP1 | -0.01 |
| CTBP1 | -1.24 |
| CTBP1 | 0.89 |
| CTBP1 | 0.74 |
| IFT80 | 0.16 |
| IFT80 | 1.49 |
| IFT80 | 1.08 |
| IFT80 | 0.61 |
| TSEN15 | -0.52 |
| TSEN15 | -0.08 |
| TSEN15 | 1.01 |
| TSEN15 | -1.2 |
| LTBP2 | -0.39 |
| LTBP2 | 0.59 |
| LTBP2 | -0.18 |
| UBE2O | -0.61 |
| UBE2O | -0.06 |
| UBE2O | 0.17 |
| UBE2O | 2.81 (active) |
| ASPRV1 | -0.68 |
| ASPRV1 | -0.24 |
| ASPRV1 | -1.66 (active) |
| ASPRV1 | -0.82 |
| PTCH1 | -0.28 |
| PTCH1 | 0.02 |
| PTCH1 | -0.17 |
| PTCH1 | 1.2 |
| CFL1 | -0.82 |
| CFL1 | -1.36 |
| CFL1 | -1.11 |
| CFL1 | -1.26 |
| PCDHB10 | -0.33 |
| PCDHB10 | 0.35 |
| PCDHB10 | -0.1 |
| PCDHB10 | 0.12 |
| KLHL10 | -0.43 |
| KLHL10 | -0.14 |
| KLHL10 | -1.02 |
| KLHL10 | -0.7 |
| TMEM79 | -0.48 |
| TMEM79 | 0.85 |
| TMEM79 | 0.64 |
| TMEM79 | 0.45 |
| FAM78B | -1.23 |
| FAM78B | -1.3 |
| FAM78B | -0.96 |
| FAM78B | -1.04 |
| THEM5 | 0.1 |
| THEM5 | 1.16 |
| THEM5 | 2.27 |
| THEM5 | -1.09 |
| PSD2 | 0.77 |
| PSD2 | 1.09 |
| PSD2 | 0.12 |
| PSD2 | 0.39 |
| ST6GALNAC1 | 1.18 |
| ST6GALNAC1 | 3.1 (active) |
| ST6GALNAC1 | 2.27 |
| ST6GALNAC1 | 3.77 (active) |
| NARS1 | 1.19 |
| NARS1 | -0.08 |
| NARS1 | -0.23 |
| NARS1 | -0.2 |
| VAV1 | -0.26 |
| VAV1 | 1.11 |
| VAV1 | 0.4 |
| VAV1 | 0.7 |

Active calls (from the list above):
| Gene | TNF reporter robust z-score |
| --- | --- |
| DENND2B | -1.59 (active) |
| PPP3R1 | 3.73 (active) |
| UBE2O | 2.81 (active) |
| ASPRV1 | -1.66 (active) |
| ST6GALNAC1 | 3.1 (active) |
| ST6GALNAC1 | 3.77 (active) |
